# Some of the results follow. These are further read-outs of the screen, such as a control signal, another cell line or another target. No call is given for them. Most of these compounds were active or inconclusive in the main read-out, so they are no random draw. Words in brackets tell the shape of the fitted curve; partial curves, single points and poor fits give uncertain potencies.
# Test: qHTS Assay for Lipid Storage Modulators in Drosophila S3 Cells;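 for cell number change: cells counted by Cell Tracker Red CMTPX staining in the red channel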
# Settings: BODIPY lipid droplet fluorescence, 18-24 h; for cell number change: measured here: cell count max response, cells fed with added oleic acid
# In short: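 Laser-scanning cytometry quantifies lipid droplet accumulation (500–530 nm total intensity; droplet/cell object ratio) in oleic acid-fed (400 uM added) Drosophila S3 cells treated with a concentration series. 20 uM Triacsin C defined 100% inhibition.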
# [1] = measured here: lipid fluorescence (Fed channel) AC50, cells fed with added oleic acid
# [2] = measured here: cell number channel AC50, cells fed with added oleic acid
SMILES,cell number change [%],AC50 [1],AC50 [2]
O=C(CCN1CCOCC1)c1ccccc1,1.27,"5.8 µM [falling, single point]",–
CN1C2C=C(N(CCc3c[nH]c4ccccc34)C(=O)c3ccc(Cl)cc3)CC1CC2 (stereo not drawn),4.02,–,–
CCN1CNC(=S)N(c2cccc(C)c2C)C1,1.92,–,–
O=C(NCCN1CCOCC1)C1CCC(CNS(=O)(=O)c2ccc(Cl)cc2)CC1 (stereo not drawn),-21.1,–,"0.0517 µM [falling, full curve, poor fit]"
CCC(=O)Nc1cc2[nH]c(=O)cc(C)c2cc1C,-12.6,"0.461 µM [falling, full curve]","0.291 µM [falling, partial curve, poor fit]"
COc1ccc(C)cc1NC(=O)C(OC(=O)c1cnc(C)cn1)c1ccccc1 (stereo not drawn),21.8,"1.84 µM [rising, partial curve]",–
Cc1sc(NC(=O)c2ccco2)c(CN2CCN(c3ccccn3)CC2)c1C,-0.972,"0.731 µM [falling, full curve, poor fit]",–
Cc1ccc(C(=O)NC2CCS(=O)(=O)C2)cc1S(=O)(=O)N1CCCCCC1 (stereo not drawn),-31.7,–,"25.9 µM [falling, single point]"
CCN(CCCNC(=O)CCCN1C(=O)COc2ccc(C)cc21)c1cccc(C)c1,-15.1,"8.2 µM [rising, partial curve, poor fit]",–
CCOc1ccc(CNC(=O)CN2C(=O)CSc3ccc(S(=O)(=O)N4CCOCC4)cc32)cc1OC,-40.4,–,"10.3 µM [falling, partial curve]"
CC(=O)Nc1ccc(NC(=O)C(C)OC(=O)CN(C)S(=O)(=O)c2ccc(Cl)cc2)cc1 (stereo not drawn),–,"0.259 µM [rising, full curve, poor fit]","1.84 µM [rising, partial curve, poor fit]"
COc1ccc(C2N(Cc3ccccc3)CC(=O)N2/N=C(\C)c2ccccc2)cc1 (stereo not drawn),23.9,"16.4 µM [rising, single point]",–
COc1ccc(S(=O)(=O)N2CCC(C(=O)NC3CC(C)(C)NC(C)(C)C3)CC2)cc1,-11.2,"3.66 µM [falling, single point]",–
O=c1cc[nH]c2cccc(Cc3ccccc3)c12,5.17,"0.0731 µM [falling, full curve, poor fit]",–
COc1ccc(-c2cnnn2-c2ccc(NC(=O)c3ccc(S(=O)(=O)N4CCCCC4)cc3)cc2)cc1OC,–,"0.13 µM [rising, full curve, poor fit]",–
O=C(Nc1ccccc1)/C(=C/c1ccc(F)cc1)NC(=O)c1ccco1,21.7,–,–
COc1cccc(C(=O)Nc2nnc(-c3ccccc3)s2)c1OC,-16.7,"2.59 µM [falling, full curve]",–
O=C(CCC(=O)OCC(=O)c1ccccc1)NC1CCCCC1,2.62,"10.3 µM [falling, single point]",–
CC(C)CCNC(=O)CN(C(=O)Cn1nnc(-c2ccc(F)cc2)n1)C1CCCC1,-10.8,"0.184 µM [falling, full curve]",–

# Compounds above with a furan ring, fused or not, in the order listed:
SMILES,cell number change [%],AC50 [1],AC50 [2]
Cc1sc(NC(=O)c2ccco2)c(CN2CCN(c3ccccn3)CC2)c1C,-0.972,"0.731 µM [falling, full curve, poor fit]",–
O=C(Nc1ccccc1)/C(=C/c1ccc(F)cc1)NC(=O)c1ccco1,21.7,–,–

# The results go on.

SMILES,cell number change [%],AC50 [1],AC50 [2]
O=C(/C=C/c1ccc(OC(F)F)cc1)OCC(=O)N1CCN(C(=O)c2ccco2)CC1,–,"2.31 µM [falling, partial curve]",–
CC1(CCBr)C(=O)N(c2ccccc2)c2ccccc21 (stereo not drawn),2.19,"0.58 µM [rising, single point]",–
O=C(COc1ccccc1)NCC(c1ccco1)N1CCN(c2ccccc2)CC1 (stereo not drawn),32.2,"29.1 µM [rising, single point]","2.06 µM [rising, full curve]"
COc1cc2cc(CCOC(=O)CCCC(=O)O)oc(=O)c2cc1OC,13.9,"18.4 µM [rising, single point]","1.16 µM [falling, single point]"
O=C(CN(Cc1ccccc1)C(=O)CCC(=O)Nc1nccs1)NCc1ccc(F)cc1,3.91,"6.51 µM [falling, single point]",–
CC(NC(=O)COC(=O)c1cc([N+](=O)[O-])ccc1N1CCOCC1)c1ccccc1 (stereo not drawn),-20.2,"29.1 µM [falling, single point]",–
C/C(=C\C(=O)c1ccc(F)cc1)NCc1ccc2c(c1)OCO2,-24.7,"32.6 µM [falling, single point]",–
COc1ccc(N(CC(=O)NCc2ccccc2)C(=O)CCC(=O)Nc2cc(C)ccn2)c(OC)c1,0.747,"0.092 µM [rising, full curve, poor fit]",–
CCOc1ccc(CCNC(=O)COC(=O)/C=C/c2ccc(OC(F)F)c(OC)c2)cc1OCC,-73.9,"7.31 µM [falling, partial curve]","1.84 µM [falling, full curve]"
CCOC(=O)C1(Cc2ccccc2C)CCCN(C(=O)c2ccc(CSC)o2)C1 (stereo not drawn),-19.9,–,–
CN(c1ccccc1)S(=O)(=O)c1cccc(NC(=O)COc2ccccc2)c1,-21.8,"1.46 µM [falling, full curve, poor fit]",–
COc1ccc(S(=O)(=O)NC2CC2)cc1Cl,10.2,–,–
CCN(CC)CCn1c2c(c(SCC(=O)Nc3ccc(C(C)C)cc3)nc1=O)CCC2,-0.368,"8.2 µM [falling, partial curve, poor fit]",–
O=C(O)CSC1CC(=O)N(c2ccc(Cl)cc2)C1=O (stereo not drawn),-0.84,"0.0164 µM [falling, full curve]",–
Cc1ccc(CNC(=O)Cn2ccc3ccccc3c2=O)o1,8.36,"0.731 µM [falling, full curve]","0.82 µM [falling, full curve, poor fit]"
Cc1ccc(CNC(=O)C(=O)NCC2OCCN2S(=O)(=O)c2ccc(Br)cc2)cc1 (stereo not drawn),-19.6,"32.6 µM [falling, single point]",–
Cc1nc2ccccn2c1C(=O)NCc1cccnc1,11.1,"29.1 µM [rising, single point]",–
Cc1ccc(NC(=O)COC(=O)C2CCN(c3ccc(C(F)(F)F)cn3)CC2)cc1,24.4,"29.1 µM [rising, single point]","0.58 µM [rising, full curve, poor fit]"

# Source: PubChem BioAssay AID2685 (National Center for Advancing Translational Sciences (NCATS), 2010)
